PubChem BioAssay AID1259262 | Sanger Institute – 2017

Test: 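Kinase knock-downs that strengthen killing by targeted cancer drugs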 (follow-up of hits)
Cells: LS513 human colorectal cancer cells
Knock-down reagent: single siRNA against human genes
Conditions: anchor drug or DMSO vehicle: cetuximab 5 µg/ml, trametinib 10 nM or BYL719 1 µM; exposure length not given
Measurement: 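Cell viability relative to non-targeting control siRNA, and a synergy score for each anchor drug, averaged over replicates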
Scale: synergy score with trametinib and synergy score with BYL719 and synergy score with cetuximab: higher = stronger synergistic loss of viability with drug; viability, siRNA with trametinib and viability, siRNA with vehicle only: higher = more viable cells
Call rule: 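Active when the synergy score is above 0.10 for trametinib, BYL719 or cetuximab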
Calls: active = synergy with at least one drug; inactive = no synergy with any drug
Here is a random part of 160 deposited reagents. In the full data, 93 (58%) are marked active. 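Calls refer to single siRNAs; gene-level validation required two or more siRNAs in several lines; synergy score formula unstated.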 The numbers tell different reagents against one gene apart. Viability is capped at 1. Not given: the amount of reagent, the time to read-out.

gene knocked down | reagent | synergy score with trametinib | synergy score with BYL719 | synergy score with cetuximab | viability, siRNA with trametinib (fraction of control) | viability, siRNA with vehicle only (fraction of control) | activity call
STK36 | 1 | 0.199 | -0.214 | -0.0897 | 0.0553 | 0.468 | active
STK36 | 2 | -0.111 | -0.223 | -0.11 | 0.655 | 1 | inactive
STK36 | 3 | 0.139 | -0.149 | -0.116 | 0.272 | 0.756 | active
STK36 | 4 | 0.116 | -0.184 | -0.074 | 0.382 | 0.916 | active
HUNK | 1 | 0.112 | 0.0894 | -0.0735 | 0.238 | 0.644 | active
HUNK | 2 | 0.211 | 0.0531 | 0.0833 | 0.0832 | 0.541 | active
HUNK | 3 | 0.0856 | -0.0991 | -0.0665 | 0.291 | 0.693 | inactive
HUNK | 4 | 0.135 | -0.0437 | 0.0247 | 0.195 | 0.608 | active
MAPK4 | 1 | 0.0327 | -0.0865 | -0.0809 | 0.425 | 0.841 | inactive
MAPK4 | 2 | 0.0717 | -0.0453 | -0.151 | 0.333 | 0.745 | inactive
MAPK4 | 3 | 0.318 | -0.00712 | 0.107 | 0.196 | 0.945 | active
MAPK4 | 4 | 0.069 | -0.127 | -0.189 | 0.195 | 0.486 | inactive
PRAG1 | 1 | 0.166 | -0.188 | -0.00391 | 0.267 | 0.797 | active
PRAG1 | 2 | 0.197 | 0.119 | -0.0101 | 0.346 | 1 | active
PRAG1 | 3 | -0.135 | -0.0707 | -0.178 | 0.561 | 0.783 | inactive
PRAG1 | 4 | 0.0222 | -0.216 | -0.11 | 0.522 | 1 | inactive
PIK3CA | 1 | -0.00142 | -0.201 | -0.145 | 0.4 | 0.732 | inactive
PIK3CA | 2 | 0.197 | -0.075 | -0.025 | 0.302 | 0.919 | active
PIK3CA | 3 | 0.108 | -0.204 | -0.163 | 0.403 | 0.94 | active
PIK3CA | 4 | 0.12 | -0.212 | -0.11 | 0.423 | 1 | active
NR2F2 | 1 | 0.162 | -0.0816 | -0.0178 | 0.381 | 1 | active
NR2F2 | 2 | 0.129 | -0.0457 | -0.11 | 0.415 | 1 | active
NR2F2 | 3 | 0.122 | -0.226 | -0.11 | 0.422 | 1 | active
NR2F2 | 4 | 0.349 | 0.00271 | 0.0193 | 0.144 | 0.906 | active
AK2 | 1 | 0.144 | -0.343 | -0.187 | 0.277 | 0.774 | active
AK2 | 2 | 0.435 | -0.226 | -0.0795 | 0.109 | 1 | active
AK2 | 3 | 0.0929 | -0.226 | -0.11 | 0.451 | 1 | inactive
AK2 | 4 | 0.337 | -0.00535 | 0.015 | 0.166 | 0.924 | active
BRAF | 1 | -0.174 | -0.161 | -0.293 | 0.515 | 0.627 | inactive
BRAF | 2 | 0.154 | -0.0788 | -0.00402 | 0.151 | 0.56 | active
BRAF | 3 | 0.155 | -0.101 | -0.019 | 0.114 | 0.496 | active
BRAF | 4 | 0.0133 | -0.0874 | -0.217 | 0.402 | 0.764 | inactive

Continued (2 carried over from the part before).
gene knocked down | reagent | synergy score with trametinib | synergy score with BYL719 | synergy score with cetuximab | viability, siRNA with trametinib (fraction of control) | viability, siRNA with vehicle only (fraction of control) | activity call
BRAF | 3 | 0.155 | -0.101 | -0.019 | 0.114 | 0.496 | active
BRAF | 4 | 0.0133 | -0.0874 | -0.217 | 0.402 | 0.764 | inactive
KCNH8 | 1 | 0.229 | -0.0956 | 0.0267 | 0.101 | 0.607 | active
KCNH8 | 2 | 0.102 | -0.0695 | -0.0213 | 0.128 | 0.424 | active
KCNH8 | 3 | -0.0478 | -0.15 | -0.153 | 0.476 | 0.787 | inactive
KCNH8 | 4 | 0.15 | -0.165 | -0.0188 | 0.337 | 0.895 | active
CAMK2N1 | 1 | 0.0945 | -0.19 | -0.134 | 0.34 | 0.799 | inactive
CAMK2N1 | 2 | -0.0843 | 0.428 | -0.117 | 0.518 | 0.797 | –
CAMK2N1 | 3 | 0.0941 | -0.0115 | -0.0179 | 0.323 | 0.767 | inactive
CAMK2N1 | 4 | 0.0363 | -0.202 | -0.158 | 0.464 | 0.919 | inactive
BMPR2 | 1 | 0.0415 | -0.125 | -0.11 | 0.502 | 1 | inactive
BMPR2 | 2 | 0.102 | -0.139 | 0.0266 | 0.2 | 0.555 | active
BMPR2 | 3 | 0.0798 | -0.0899 | 0.0903 | 0.44 | 0.955 | inactive
BMPR2 | 4 | -0.238 | -0.226 | -0.11 | 0.782 | 1 | inactive
IKBKB | 1 | 0.132 | -0.164 | -0.103 | 0.324 | 0.838 | active
IKBKB | 2 | -0.0784 | -0.157 | -0.0219 | 0.513 | 0.799 | inactive
IKBKB | 3 | 0.0209 | -0.217 | -0.167 | 0.412 | 0.796 | inactive
IKBKB | 4 | 0.0367 | -0.172 | -0.0751 | 0.272 | 0.567 | inactive
CDKN2D | 1 | 0.243 | -0.231 | -0.149 | 0.21 | 0.832 | active
CDKN2D | 2 | 0.0272 | 0.0459 | -0.148 | 0.322 | 0.642 | inactive
CDKN2D | 3 | 0.247 | -0.178 | -0.0614 | 0.297 | 1 | active
CDKN2D | 4 | 0.269 | 0.0175 | -0.0275 | 0.107 | 0.692 | active
MPP3 | 1 | -0.0893 | -0.0283 | -0.0152 | 0.577 | 0.898 | inactive
MPP3 | 2 | -0.0078 | -0.12 | -0.111 | 0.511 | 0.926 | inactive
MPP3 | 3 | 0.355 | -0.068 | 0.0564 | 0.0604 | 0.764 | active
MPP3 | 4 | 0.221 | -0.0354 | 0.0102 | 0.32 | 0.996 | active
PINK1 | 1 | -0.0685 | -0.226 | -0.11 | 0.612 | 1 | inactive
PINK1 | 2 | 0.302 | 0.0988 | 0.0295 | 0.0905 | 0.722 | active
PINK1 | 3 | 0.103 | 0.00384 | -0.0193 | 0.229 | 0.611 | active
PINK1 | 4 | 0.132 | 0.0402 | -0.0314 | 0.356 | 0.897 | active
CHD4 | 1 | -0.0145 | -0.128 | -0.0542 | 0.176 | 0.297 | inactive
CHD4 | 2 | 0.117 | -0.0984 | 0.00425 | 0.0727 | 0.348 | active
CHD4 | 3 | 0.0717 | -0.00221 | 0.0136 | 0.226 | 0.547 | inactive
CHD4 | 4 | 0.0539 | -0.112 | -0.0164 | 0.375 | 0.789 | inactive
